# Measurements reported in PubChem BioAssay AID743121 (NCATS, 2013).
# Test: 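Knock-downs that sensitise breast cancer cells to camptothecin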 (primary screen)
# Cell system: MDA-MB-231 cells, a human breast cancer line
# Reagents: single siRNA against human genes, 20 nM siRNA (0.8 pmol per well)
# Timing: 120 h (drug added 48 h after transfection, read 72 h later)
# Conditions: camptothecin 20 nM (about EC30) for 72 h; vehicle 0.1% DMSO in parallel plates
# Detection: 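CellTiter-Glo ATP signal, scaled to control siRNA as percent viability; sensitisation given as log2 of untreated divided by camptothecin-treated viability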
# Scale: log2 vehicle/camptothecin viability: higher = stronger sensitisation to camptothecin; viability with camptothecin and viability without drug: higher = more viable cells
# Hit rule: 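Active genes have an RSA gene-level p-value below 0.001, computed from the ratios of their separate siRNAs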
# This is one part, drawn at random, of about 26,000 reagents. Of all reagents, 167 (0.63%) got an active call. 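Calls are per gene from RSA p-values that are not deposited; an individual active-marked siRNA can sensitise only weakly.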 The numbers tell different reagents against one gene apart. Reagent sequences are not shown.
gene,reagent,log2 vehicle/camptothecin viability,viability with camptothecin (% of control),viability without drug (% of control),call
CCL18 (C-C motif chemokine ligand 18),1,-0.333,95.3,75.7,inactive
CCL18 (C-C motif chemokine ligand 18),2,-0.242,108,91.4,inactive
CCL18 (C-C motif chemokine ligand 18),3,0.137,49.6,54.6,inactive
CCL18 (C-C motif chemokine ligand 18),4,-0.358,77.4,60.4,inactive
PIK3R4 (phosphoinositide-3-kinase regulatory subunit 4),1,-0.0503,86.3,83.3,inactive
PIK3R4 (phosphoinositide-3-kinase regulatory subunit 4),2,-0.338,76.6,60.6,inactive
PIK3R4 (phosphoinositide-3-kinase regulatory subunit 4),3,-0.462,64.3,46.7,inactive
PIK3R4 (phosphoinositide-3-kinase regulatory subunit 4),4,-0.603,63.8,42,inactive
TRIM58 (tripartite motif containing 58),1,-0.577,68.8,46.1,inactive
TRIM58 (tripartite motif containing 58),2,-0.0882,53.6,50.4,inactive
TRIM58 (tripartite motif containing 58),3,-0.0991,71.9,67.1,inactive
TRIM58 (tripartite motif containing 58),4,-0.115,49.6,45.8,inactive
CHD3 (chromodomain helicase DNA binding protein 3),1,0.152,69.4,77.2,inactive
CHD3 (chromodomain helicase DNA binding protein 3),2,-0.186,95.8,84.2,inactive
CHD3 (chromodomain helicase DNA binding protein 3),3,-0.619,88.7,57.8,inactive
ZDHHC17 (zDHHC palmitoyltransferase 17),1,0.209,83.3,96.3,inactive
ZDHHC17 (zDHHC palmitoyltransferase 17),2,0.0416,94.7,97.5,inactive
ZDHHC17 (zDHHC palmitoyltransferase 17),3,0.39,76.8,101,inactive
TXNL4B (thioredoxin like 4B),1,-0.129,122,111,inactive
TXNL4B (thioredoxin like 4B),2,-0.365,41.3,32.1,inactive
TXNL4B (thioredoxin like 4B),3,0.104,92.8,99.7,inactive
TXNL4B (thioredoxin like 4B),4,-0.36,64.9,50.6,inactive
RNF166 (ring finger protein 166),1,-0.21,103,89.5,inactive
RNF166 (ring finger protein 166),2,0.417,62.5,83.5,inactive
RNF166 (ring finger protein 166),3,-0.024,90.7,89.2,inactive
RNF166 (ring finger protein 166),4,-0.11,109,101,inactive
AHCYL1 (adenosylhomocysteinase like 1),1,0.265,51,61.3,inactive
AHCYL1 (adenosylhomocysteinase like 1),2,-0.0593,94,90.2,inactive
AHCYL1 (adenosylhomocysteinase like 1),3,0.011,125,126,inactive
AHCYL1 (adenosylhomocysteinase like 1),4,-0.237,94.6,80.3,inactive
TRPC1,1,-0.057,114,110,inactive
TRPC1,2,-0.522,66.3,46.2,inactive
TRPC1,3,-0.174,59.3,52.5,inactive
TRPC1,4,-0.17,98.5,87.5,inactive
CDH19 (cadherin 19),1,-0.214,82.3,70.9,inactive
CDH19 (cadherin 19),2,0.0212,96.9,98.4,inactive
CDH19 (cadherin 19),3,0.647,28.6,44.9,inactive
CDH19 (cadherin 19),4,-0.232,65.8,56,inactive
RANBP10 (RAN binding protein 10),1,0.0696,91.1,95.6,inactive
RANBP10 (RAN binding protein 10),2,-0.401,90.2,68.3,inactive
RANBP10 (RAN binding protein 10),3,0.0459,20.6,21.3,inactive
RANBP10 (RAN binding protein 10),4,0.338,47.6,60.2,inactive
SELL (selectin L),1,0.326,75.7,94.9,inactive
SELL (selectin L),2,0.338,98.9,125,inactive
SELL (selectin L),3,-0.461,122,88.9,inactive
RPSA (ribosomal protein SA),1,-0.378,105,81,inactive
RPSA (ribosomal protein SA),2,-0.0975,21.1,19.7,inactive
RPSA (ribosomal protein SA),3,-0.167,108,96.3,inactive
RPSA (ribosomal protein SA),4,-0.861,49.5,27.3,inactive
RNF26 (ring finger protein 26),1,-0.065,63.2,60.4,inactive
RNF26 (ring finger protein 26),2,0.188,52,59.2,inactive
RNF26 (ring finger protein 26),3,-0.188,56.7,49.8,inactive
RNF26 (ring finger protein 26),4,-0.16,86.2,77.1,inactive
PRIM1 (DNA primase subunit 1),1,-0.0529,83.2,80.2,inactive
PRIM1 (DNA primase subunit 1),2,-0.69,56.5,35.1,inactive
PRIM1 (DNA primase subunit 1),3,-0.407,64.7,48.8,inactive
PRIM1 (DNA primase subunit 1),4,0.122,58.1,63.2,inactive
CYTH2 (cytohesin 2),1,-0.17,58,51.6,inactive
CYTH2 (cytohesin 2),2,0.00589,88.6,88.9,inactive
CYTH2 (cytohesin 2),3,0.64,26.1,40.7,inactive
CCNB2 (cyclin B2),1,-0.11,72.9,67.5,inactive
CCNB2 (cyclin B2),2,-0.0873,87.6,82.4,inactive
CCNB2 (cyclin B2),3,-0.0729,108,103,inactive
CCNB2 (cyclin B2),4,-0.46,90.5,65.8,inactive
SLC4A1,1,-0.151,67.2,60.5,inactive
SLC4A1,2,-0.355,76,59.4,inactive
SLC4A1,3,0.0836,70.2,74.4,inactive
SLC4A1,4,-0.174,46.2,40.9,inactive

Sorted by “viability with camptothecin (% of control)” (high to low): 11 of the entries above.
gene,reagent,log2 vehicle/camptothecin viability,viability with camptothecin (% of control),viability without drug (% of control),call
CCL18 (C-C motif chemokine ligand 18),2,-0.242,108,91.4,inactive
PIK3R4 (phosphoinositide-3-kinase regulatory subunit 4),1,-0.0503,86.3,83.3,inactive
CCL18 (C-C motif chemokine ligand 18),4,-0.358,77.4,60.4,inactive
PIK3R4 (phosphoinositide-3-kinase regulatory subunit 4),2,-0.338,76.6,60.6,inactive
TRIM58 (tripartite motif containing 58),3,-0.0991,71.9,67.1,inactive
TRIM58 (tripartite motif containing 58),1,-0.577,68.8,46.1,inactive
PIK3R4 (phosphoinositide-3-kinase regulatory subunit 4),3,-0.462,64.3,46.7,inactive
PIK3R4 (phosphoinositide-3-kinase regulatory subunit 4),4,-0.603,63.8,42,inactive
TRIM58 (tripartite motif containing 58),2,-0.0882,53.6,50.4,inactive
CCL18 (C-C motif chemokine ligand 18),3,0.137,49.6,54.6,inactive
TRIM58 (tripartite motif containing 58),4,-0.115,49.6,45.8,inactive
